Measurements published in paper doi:10.1101/2021.12.14.472415.
These are yes or no findings as the source states them, for the method shown. Binding seen in cells or lysates may run through a third protein. Binding calls can cover weak binding; strength is not graded here. Sequences can lack the tags named with a protein.

Target: T1, DSAD1 (DSR Anti Defense 1) with C-terminal TwinStrep tag (Bacillus phage SPbeta) (UniProt Q796A8)
T1 sequence: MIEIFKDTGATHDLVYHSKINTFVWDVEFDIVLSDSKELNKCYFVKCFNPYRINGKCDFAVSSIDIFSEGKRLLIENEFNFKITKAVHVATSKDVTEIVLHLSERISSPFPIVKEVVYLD
Test: pull-down

Substance: DSR2 (H171A) from Bacillus subtilis 29R (enzyme)
- binding: binds
